According to PubChem BioAssay AID2685 (National Center for Advancing Translational Sciences (NCATS), 2010):
The list shows a part of the results. The main result of the screen is listed elsewhere. These columns were measured beside it and carry no call. Most of these compounds were active or inconclusive in the main read-out, so they are no random draw. The note in brackets gives the kind of curve behind each potency; many fits are weak.

Assay: qHTS Assay for Lipid Storage Modulators in Drosophila S3 Cells;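 for cell number change: cells counted by Cell Tracker Red CMTPX staining in the red channel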
Details: BODIPY lipid droplet fluorescence, 18-24 h; for cell number change: measured here: cell count max response, cells fed with added oleic acid
Outline: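 Drosophila S3 cells got compounds at several concentrations plus oleic acid (400 uM solution). Laser-scanning cytometry with 488 nm excitation read lipid droplets at 500-530 nm and cells at 575-640 nm. Percent activity was relative to 20 uM Triacsin C.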

[1] = measured here: lipid fluorescence (Fed channel) AC50, cells fed with added oleic acid
[2] = measured here: cell number channel AC50, cells fed with added oleic acid

Row | SMILES | cell number change | AC50 [1] | AC50 [2]
1 | Cc1ccc(S(=O)(=O)NCc2ccco2)cc1C(N)=O | 20.6% |  | 
2 | CCCCc1ccc(NC(=S)NCC2CCCO2)cc1 (configuration not stated) | 7.12% | 14.6 µM [rising, single point] | 
3 | Cc1cccc(NC(=O)CNC(=O)Cn2cc(C(F)(F)F)cc(Cl)c2=O)c1C | 2.01% |  | 
4 | CC(C)c1ccc(S(=O)(=O)Nc2ccc(SC(F)F)cc2)cc1 | -48.8% | 29.1 µM [falling, single point] | 11.6 µM [falling, partial curve]
5 | CCCCC(=O)Nc1ccc2c3c(cccc13)C(=O)N2CC | 43.4% | 3.66 µM [rising, single point] | 
6 | CCCN(CCC)S(=O)(=O)c1cccc(-c2csc(C)n2)c1 | 8.96% | 0.13 µM [rising, full curve, poor fit] | 1.16 µM [rising, partial curve, poor fit]
7 | O=C(COC(=O)C1CCN(c2ccc(C(F)(F)F)cn2)CC1)Nc1cccc(F)c1 |  | 2.06 µM [rising, partial curve] | 1.64 µM [rising, partial curve]
8 | CCOC(=O)N1CCN(c2nc(-c3ccccc3)c3cc(C)ccc3n2)CC1 | 4.17% | 29.1 µM [falling, single point] | 
9 | O=C(COCc1cc(-c2cccs2)on1)NC1CCCCC1 |  | 6.51 µM [rising, single point] | 
10 | CCOc1ccc(C(=O)Nc2cc(NC(=O)c3ccc(OCC)c(Cl)c3)cc(C(=O)O)c2)cc1Cl | -5.7% | 0.0731 µM [falling, full curve, poor fit] | 
11 | O=C(O)c1ccc(/C=N/NC(=O)C(O)(c2ccccc2)c2ccccc2)cc1 | -4.42% | 29.1 µM [rising, single point] | 
12 | O=C(NCc1cccc(F)c1)c1ccc2nc(N3CCOCC3)sc2c1 | 21.9% |  | 
13 | CCOC(=O)c1cccc(NC(=O)c2cccs2)c1 | -35.7% | 4.61 µM [rising, full curve, poor fit] | 5.8 µM [falling, partial curve]
14 | CCOc1ccc(Oc2ccccc2NC(=O)CSCC(=O)Nc2cc(C)on2)cc1 | 79.1% |  | 16.4 µM [rising, partial curve]
15 | CCOC(=O)C(C)Oc1c(C(=O)OC)sc2ncccc12 (configuration not stated) | 14.7% |  | 2.06 µM [rising, single point]
16 | NC(=O)NC(CC(=O)NCCc1ccccn1)c1ccccc1Cl (configuration not stated) | 2.78% | 0.58 µM [rising, single point] | 
17 | Cc1cccc(NC(=O)CCC(=O)Nc2nnc(C(F)(F)F)s2)c1 | -0.645% |  | 0.517 µM [falling, single point]
18 | CC(O)CNc1nc2ccccc2n1CC(=O)N1CCN(Cc2ccccc2)CC1 (configuration not stated) | -10.4% |  | 
19 | Cc1ccc(CN2[C@@H](CC3CCCCC3)COCCS2(=O)=O)cc1 | -22.3% |  | 
20 | COc1ccc(/C=N/NC(=O)Cn2nnc3ccccc32)cc1OC | 12.4% | 4.61 µM [rising, full curve] | 
21 | O=C(O)CSC1CC(=O)N(c2ccc(Br)cc2)C1=O (configuration not stated) |  | 0.58 µM [rising, single point] | 

2 records picked at random from those above:
Row | SMILES | cell number change | AC50 [1] | AC50 [2]
18 | CC(O)CNc1nc2ccccc2n1CC(=O)N1CCN(Cc2ccccc2)CC1 (configuration not stated) | -10.4% |  | 
3 | Cc1cccc(NC(=O)CNC(=O)Cn2cc(C(F)(F)F)cc(Cl)c2=O)c1C | 2.01% |  | 

(list continues)

Row | SMILES | cell number change | AC50 [1] | AC50 [2]
22 | COc1ccc(N(C(C)C(=O)N/N=C/c2cccnc2)S(C)(=O)=O)cc1 (configuration not stated) | -16.2% | 4.11 µM [falling, single point] | 
23 | N#Cc1ccccc1Cn1c(=O)n(CCCC(=O)NCc2ccc3c(c2)OCO3)c(=O)c2ccccc21 |  | 0.082 µM [rising, full curve, poor fit] | 
24 | Cc1ccc(C(=O)Cn2c(C(=O)OCCO)cc3ccccc32)cc1 | -31.2% | 6.51 µM [falling, single point] | 4.61 µM [falling, partial curve]
25 | COc1c(-c2ccccc2)oc2c(ccc3occc32)c1=O | 20% | 10.3 µM [rising, partial curve, poor fit] | 
26 | CC(=O)CCSc1ncnc2sc(-c3ccccc3)cc12 | 24.9% |  | 
27 | CCOC(=O)c1c(C)n(C)c2ccc(OCC(O)CN3CCCCCC3)cc12 (configuration not stated) |  | 1.16 µM [rising, partial curve] | 
28 | Cc1ccc(NC(=O)N2CCCC2C(=O)NCC2CCCCC2)cc1 (configuration not stated) | 7.69% | 5.17 µM [rising, single point] | 
29 | Cc1cc(Br)ccc1NC(=O)CN(C)C(=O)COc1cccc2c1OC(C)(C)C2 |  | 3.26 µM [rising, partial curve, poor fit] | 0.731 µM [rising, partial curve, poor fit]
30 | C=CCCCCCCCCC(=O)Nc1c[nH]c(=O)[nH]c1=O | -14.7% | 1.64 µM [falling, partial curve, poor fit] | 
31 | C[C@H](NC(=O)C1CC(=O)N(c2ccc3c(c2)OCCO3)C1)C(=O)N1CCCCC1 (some centres not stated) | 2.64% |  | 
32 | O=C(c1ccc2c(=O)n(-c3ccccc3)c(=S)[nH]c2c1)N1CCN(c2ccccc2)CC1 | 17.1% | 14.6 µM [falling, partial curve] | 
33 | C=C(C)Cn1c(SCCCO)nc2c1c(=O)[nH]c(=O)n2C | 2.04% | 5.8 µM [falling, full curve, poor fit] | 
34 | O=C(CNS(=O)(=O)c1ccc(F)cc1)N1CCOCC1 | -2.63% |  | 
35 | O=C(Nc1ccccc1Oc1ccccc1)c1ccc(Br)o1 | 3.52% | 6.51 µM [rising, single point] | 
36 | c1ccc(COc2ccccc2CNc2nn[nH]n2)cc1 | 2.55% |  | 0.731 µM [rising, single point]
37 | Cc1ccc(Nc2nc(-c3ccc(C)cc3)c(CC(=O)O)s2)cc1 | 44.5% |  | 
38 | O=C(NCc1cccc(Cl)c1)N1CCN(S(=O)(=O)c2ccccc2F)CC1 | 20.3% |  | 0.731 µM [rising, full curve, poor fit]
39 | Clc1ccc(-[n+]2c(-c3cccc(Br)c3)[nH]c3nc4ccccc4nc32)cc1 | 28.7% | 6.51 µM [rising, single point] | 
40 | COc1ccc(-c2nc(SCC(=O)Nc3cccc(S(N)(=O)=O)c3)n[nH]2)cc1 | -10% |  | 
41 | Cc1cccc(-n2ncc3c2CCCC3NC(=O)Cn2cccn2)c1C (configuration not stated) | -4.53% | 0.58 µM [falling, full curve] | 
